This passage reports binding results from PMC6223059.

Amino acid sequences for entries named in this document (tags omitted).
UniProt Q13148: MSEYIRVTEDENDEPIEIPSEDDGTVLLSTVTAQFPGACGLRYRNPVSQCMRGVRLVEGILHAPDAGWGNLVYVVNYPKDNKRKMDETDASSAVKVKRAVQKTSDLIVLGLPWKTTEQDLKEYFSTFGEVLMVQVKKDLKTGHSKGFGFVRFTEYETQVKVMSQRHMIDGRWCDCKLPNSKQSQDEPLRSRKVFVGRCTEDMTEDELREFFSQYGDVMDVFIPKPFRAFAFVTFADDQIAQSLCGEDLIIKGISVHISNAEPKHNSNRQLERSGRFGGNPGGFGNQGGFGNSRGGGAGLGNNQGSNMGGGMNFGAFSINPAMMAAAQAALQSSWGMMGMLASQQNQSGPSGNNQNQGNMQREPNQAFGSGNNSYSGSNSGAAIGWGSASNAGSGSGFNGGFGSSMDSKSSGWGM
UniProt Q921F2: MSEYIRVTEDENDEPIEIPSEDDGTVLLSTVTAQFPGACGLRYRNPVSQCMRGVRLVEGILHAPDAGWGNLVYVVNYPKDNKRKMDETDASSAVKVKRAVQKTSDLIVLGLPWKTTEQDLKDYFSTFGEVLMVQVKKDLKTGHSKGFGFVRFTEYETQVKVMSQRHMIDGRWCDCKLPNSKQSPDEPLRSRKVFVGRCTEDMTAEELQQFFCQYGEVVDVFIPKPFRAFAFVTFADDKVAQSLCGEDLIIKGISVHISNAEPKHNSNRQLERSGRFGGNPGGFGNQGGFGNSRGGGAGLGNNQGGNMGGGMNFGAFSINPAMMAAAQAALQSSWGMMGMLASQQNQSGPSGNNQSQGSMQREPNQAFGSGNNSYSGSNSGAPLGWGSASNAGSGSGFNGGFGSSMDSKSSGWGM

In assay [1] the target is T1, Flag-mZnf179 (Flag-tagged mouse Znf179) (mouse) (UniProt Q96DY5).
T1 sequence: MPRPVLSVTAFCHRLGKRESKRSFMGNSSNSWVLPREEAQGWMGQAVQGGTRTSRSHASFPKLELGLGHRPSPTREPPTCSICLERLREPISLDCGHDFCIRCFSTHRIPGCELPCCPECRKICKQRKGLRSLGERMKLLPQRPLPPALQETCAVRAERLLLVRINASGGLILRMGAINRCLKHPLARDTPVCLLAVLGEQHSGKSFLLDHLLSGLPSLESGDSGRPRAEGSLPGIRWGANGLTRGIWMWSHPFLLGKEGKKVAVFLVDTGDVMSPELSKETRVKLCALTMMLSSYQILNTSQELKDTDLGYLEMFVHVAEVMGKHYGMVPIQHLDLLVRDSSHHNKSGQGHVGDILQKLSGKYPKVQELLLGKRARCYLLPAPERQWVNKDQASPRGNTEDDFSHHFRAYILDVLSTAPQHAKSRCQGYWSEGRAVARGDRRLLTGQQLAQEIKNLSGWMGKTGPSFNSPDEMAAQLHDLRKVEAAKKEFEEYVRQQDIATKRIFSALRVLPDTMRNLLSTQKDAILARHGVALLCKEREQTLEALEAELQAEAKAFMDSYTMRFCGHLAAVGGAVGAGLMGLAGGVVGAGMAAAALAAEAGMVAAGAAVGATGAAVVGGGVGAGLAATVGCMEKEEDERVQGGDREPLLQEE
As to the kind of experiment: co-IP; lysates of 293 T cells transfected with Flag-mZnf179 (48 h) or N2a cells stably expressing GFP-mZnf179, treated with 10 uM MG132 for 4 h; lysis buffer 50 mM Tris-HCl pH 7.8, 150 mM NaCl, 0.1% Nonidet P-40, 0.5% Triton X-100; IP with anti-TDP-43 or anti-Znf179 antibodies (Catch and Release IP Kit), 2 h at 4 °C; blot with anti-TDP-43 and anti-Znf179.

Assay [2] addresses T2, GFP-mZnf179 (GFP-tagged mouse Znf179) (mouse) (UniProt Q96DY5).
T2 sequence: T1 sequence
The assay is described as above.

In assay [3] the target is T3, endogenous Znf179 (mouse brain) (mouse (endogenous in mouse brain)) (UniProt Q96DY5).
T3 sequence: T1 sequence
Kind of assay: co-IP; total brain lysates of wild-type or Znf179-knockout mice; IP with anti-TDP-43 or anti-Znf179 antibodies (Catch and Release IP Kit), 2 h at 4 °C; blot with anti-Znf179 and anti-TDP-43.

These are yes or no findings as the source states them, for the method shown. In cells and extracts the contact can be indirect. Some results given as binding are weak or reduced against the parent protein; the word gives no strength. For part of these data: Tags and fused reporters may be left off the sequences shown.

With “endogenous TDP-43 (293 T cells) (from UniProt Q13148 1-414)”, the binding entry in assay [1] is recorded as “binds”.

As to “endogenous TDP-43 (N2a cells) (from UniProt Q921F2 1-414)”, the binding entry in assay [2] is reported as “binds”.

Take “endogenous TDP-43 (mouse brain) (from UniProt Q921F2 1-414)”: the binding entry in assay [3] is on record as “binds”.
